Measured values: the supplement of paper PMC12823440, “Inhibitors supercharge kinase turnover through native proteolytic circuits” (Nature, 2025)
Counter-ions that a name gives are not always drawn. Some of the results follow. The calls rarely recur for the same compound in another form.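 Kinases, fused to nanoluciferase, were expressed in K562 cells; luminescence was measured every 4 h from 2 to 18 h as percent of control (DMSO = 100%, positive control = 0%). A time point is decreased if signal falls significantly (2 sigma). Hits were called by the authors by a rule that is not shown; the count of time points alone does not decide it.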

Sequences of proteins named here, by UniProt entry; tags and fusion partners are left off. A change or cut given only in a name is not applied to a line headed by its entry.
UniProt O75460: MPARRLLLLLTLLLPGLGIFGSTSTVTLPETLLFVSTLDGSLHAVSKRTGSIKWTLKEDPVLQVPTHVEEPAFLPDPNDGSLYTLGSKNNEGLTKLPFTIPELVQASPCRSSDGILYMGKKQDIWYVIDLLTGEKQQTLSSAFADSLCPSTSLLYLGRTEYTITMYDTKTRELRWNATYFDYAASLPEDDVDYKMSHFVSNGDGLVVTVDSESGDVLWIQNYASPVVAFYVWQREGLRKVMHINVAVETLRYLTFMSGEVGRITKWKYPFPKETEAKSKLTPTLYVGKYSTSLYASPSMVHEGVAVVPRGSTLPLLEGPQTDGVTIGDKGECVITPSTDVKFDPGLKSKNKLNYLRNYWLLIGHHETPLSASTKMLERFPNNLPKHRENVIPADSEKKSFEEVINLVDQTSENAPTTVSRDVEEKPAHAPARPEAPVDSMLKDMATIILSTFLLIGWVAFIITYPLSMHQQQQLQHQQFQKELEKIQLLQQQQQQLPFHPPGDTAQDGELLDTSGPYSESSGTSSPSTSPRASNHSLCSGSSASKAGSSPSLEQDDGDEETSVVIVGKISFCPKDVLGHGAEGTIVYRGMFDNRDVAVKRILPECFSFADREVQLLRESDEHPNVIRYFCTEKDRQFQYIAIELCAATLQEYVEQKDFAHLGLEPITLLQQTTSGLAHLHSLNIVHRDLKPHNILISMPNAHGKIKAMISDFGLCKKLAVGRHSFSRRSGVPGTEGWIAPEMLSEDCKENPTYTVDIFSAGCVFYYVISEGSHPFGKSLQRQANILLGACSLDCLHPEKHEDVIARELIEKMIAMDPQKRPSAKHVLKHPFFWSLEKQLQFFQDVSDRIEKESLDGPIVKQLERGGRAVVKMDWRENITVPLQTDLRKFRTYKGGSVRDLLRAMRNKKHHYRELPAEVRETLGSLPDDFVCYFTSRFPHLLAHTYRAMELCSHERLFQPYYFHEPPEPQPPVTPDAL
UniProt P11362, whole entry, looked up: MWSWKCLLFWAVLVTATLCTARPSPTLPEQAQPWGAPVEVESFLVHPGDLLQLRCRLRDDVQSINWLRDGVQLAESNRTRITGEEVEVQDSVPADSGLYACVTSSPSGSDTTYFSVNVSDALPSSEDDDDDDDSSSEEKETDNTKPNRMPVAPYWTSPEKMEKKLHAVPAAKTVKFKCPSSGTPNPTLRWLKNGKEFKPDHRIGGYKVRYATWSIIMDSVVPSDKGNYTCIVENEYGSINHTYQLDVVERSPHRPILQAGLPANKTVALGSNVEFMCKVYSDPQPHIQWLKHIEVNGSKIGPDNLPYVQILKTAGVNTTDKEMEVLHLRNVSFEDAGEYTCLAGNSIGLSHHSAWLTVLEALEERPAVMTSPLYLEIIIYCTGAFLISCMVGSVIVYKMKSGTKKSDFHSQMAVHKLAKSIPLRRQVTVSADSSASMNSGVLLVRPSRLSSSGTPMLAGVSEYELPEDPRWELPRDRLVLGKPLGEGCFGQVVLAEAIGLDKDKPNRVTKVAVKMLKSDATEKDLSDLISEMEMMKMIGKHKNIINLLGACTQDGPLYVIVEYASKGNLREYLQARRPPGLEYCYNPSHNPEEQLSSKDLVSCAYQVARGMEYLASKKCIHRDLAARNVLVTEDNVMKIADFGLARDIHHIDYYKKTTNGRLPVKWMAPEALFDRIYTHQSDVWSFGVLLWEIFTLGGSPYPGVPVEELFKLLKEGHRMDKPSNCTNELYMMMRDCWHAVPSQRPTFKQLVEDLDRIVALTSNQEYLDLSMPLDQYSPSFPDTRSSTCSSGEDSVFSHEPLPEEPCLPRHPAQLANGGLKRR
UniProt P21802, whole entry, looked up: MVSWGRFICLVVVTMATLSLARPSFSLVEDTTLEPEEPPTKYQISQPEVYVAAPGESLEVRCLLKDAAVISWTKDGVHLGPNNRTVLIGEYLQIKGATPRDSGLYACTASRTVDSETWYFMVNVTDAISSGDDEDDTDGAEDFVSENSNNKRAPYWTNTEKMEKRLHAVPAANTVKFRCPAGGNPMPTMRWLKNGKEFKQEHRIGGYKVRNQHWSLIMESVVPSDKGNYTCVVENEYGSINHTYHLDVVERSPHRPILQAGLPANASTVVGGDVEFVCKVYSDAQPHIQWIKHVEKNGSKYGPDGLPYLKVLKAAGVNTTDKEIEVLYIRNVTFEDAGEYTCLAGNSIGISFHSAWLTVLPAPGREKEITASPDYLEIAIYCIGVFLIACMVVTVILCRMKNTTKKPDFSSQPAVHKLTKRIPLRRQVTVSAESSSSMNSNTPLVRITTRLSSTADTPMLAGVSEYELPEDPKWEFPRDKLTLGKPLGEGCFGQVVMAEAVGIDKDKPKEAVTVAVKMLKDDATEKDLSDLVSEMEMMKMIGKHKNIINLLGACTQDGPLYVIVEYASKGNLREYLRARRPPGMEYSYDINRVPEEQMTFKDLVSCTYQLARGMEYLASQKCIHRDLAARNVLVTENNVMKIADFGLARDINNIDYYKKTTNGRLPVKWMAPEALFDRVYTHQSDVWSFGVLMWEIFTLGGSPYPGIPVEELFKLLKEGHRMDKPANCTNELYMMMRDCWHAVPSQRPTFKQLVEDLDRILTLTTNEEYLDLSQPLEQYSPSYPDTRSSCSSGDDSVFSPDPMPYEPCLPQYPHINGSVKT
UniProt P22607, whole entry, looked up: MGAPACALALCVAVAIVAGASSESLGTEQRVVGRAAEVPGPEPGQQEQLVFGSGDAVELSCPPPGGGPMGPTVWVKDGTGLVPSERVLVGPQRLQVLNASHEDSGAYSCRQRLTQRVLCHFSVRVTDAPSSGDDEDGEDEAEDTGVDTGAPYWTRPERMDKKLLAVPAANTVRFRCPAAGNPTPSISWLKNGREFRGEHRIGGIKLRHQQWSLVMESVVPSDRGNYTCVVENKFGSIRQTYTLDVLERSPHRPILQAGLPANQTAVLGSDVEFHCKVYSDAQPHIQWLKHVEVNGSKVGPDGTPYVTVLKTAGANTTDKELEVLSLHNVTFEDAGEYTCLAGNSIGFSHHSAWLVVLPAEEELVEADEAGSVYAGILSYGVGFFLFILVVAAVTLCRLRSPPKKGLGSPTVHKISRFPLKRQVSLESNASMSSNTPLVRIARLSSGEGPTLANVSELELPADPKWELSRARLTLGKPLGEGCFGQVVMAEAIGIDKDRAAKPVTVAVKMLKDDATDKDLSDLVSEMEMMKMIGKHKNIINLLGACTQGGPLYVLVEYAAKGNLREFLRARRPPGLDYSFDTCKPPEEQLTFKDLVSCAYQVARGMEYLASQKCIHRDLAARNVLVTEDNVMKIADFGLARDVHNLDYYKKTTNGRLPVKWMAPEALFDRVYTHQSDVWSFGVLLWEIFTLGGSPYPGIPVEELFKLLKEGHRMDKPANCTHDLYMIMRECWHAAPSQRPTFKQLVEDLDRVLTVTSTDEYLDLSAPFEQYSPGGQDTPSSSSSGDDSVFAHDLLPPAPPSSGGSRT
UniProt P36888, whole entry: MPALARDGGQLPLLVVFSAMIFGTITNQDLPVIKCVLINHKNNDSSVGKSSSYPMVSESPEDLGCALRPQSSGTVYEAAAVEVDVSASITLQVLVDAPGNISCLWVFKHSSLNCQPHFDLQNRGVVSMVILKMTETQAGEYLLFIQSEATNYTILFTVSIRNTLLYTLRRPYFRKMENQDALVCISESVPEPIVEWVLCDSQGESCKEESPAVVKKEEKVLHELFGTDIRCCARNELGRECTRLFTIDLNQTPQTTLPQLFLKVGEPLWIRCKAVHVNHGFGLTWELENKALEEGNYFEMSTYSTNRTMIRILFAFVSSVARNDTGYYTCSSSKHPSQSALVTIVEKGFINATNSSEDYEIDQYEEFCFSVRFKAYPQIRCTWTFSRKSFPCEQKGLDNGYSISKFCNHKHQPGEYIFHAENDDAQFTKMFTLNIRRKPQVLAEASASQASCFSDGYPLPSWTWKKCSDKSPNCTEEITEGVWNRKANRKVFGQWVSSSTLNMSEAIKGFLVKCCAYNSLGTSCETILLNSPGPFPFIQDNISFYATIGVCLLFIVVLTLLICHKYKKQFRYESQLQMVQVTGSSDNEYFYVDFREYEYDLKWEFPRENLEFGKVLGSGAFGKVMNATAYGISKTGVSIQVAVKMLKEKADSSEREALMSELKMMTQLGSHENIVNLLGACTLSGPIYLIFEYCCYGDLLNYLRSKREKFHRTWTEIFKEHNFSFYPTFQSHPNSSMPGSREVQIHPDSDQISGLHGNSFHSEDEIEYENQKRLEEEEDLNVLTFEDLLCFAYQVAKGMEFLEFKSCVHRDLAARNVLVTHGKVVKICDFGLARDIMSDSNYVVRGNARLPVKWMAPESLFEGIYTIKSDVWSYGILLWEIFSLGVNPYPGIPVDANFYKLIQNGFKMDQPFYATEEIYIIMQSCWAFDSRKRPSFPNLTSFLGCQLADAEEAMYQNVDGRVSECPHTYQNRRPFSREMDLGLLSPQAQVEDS
UniProt P49840: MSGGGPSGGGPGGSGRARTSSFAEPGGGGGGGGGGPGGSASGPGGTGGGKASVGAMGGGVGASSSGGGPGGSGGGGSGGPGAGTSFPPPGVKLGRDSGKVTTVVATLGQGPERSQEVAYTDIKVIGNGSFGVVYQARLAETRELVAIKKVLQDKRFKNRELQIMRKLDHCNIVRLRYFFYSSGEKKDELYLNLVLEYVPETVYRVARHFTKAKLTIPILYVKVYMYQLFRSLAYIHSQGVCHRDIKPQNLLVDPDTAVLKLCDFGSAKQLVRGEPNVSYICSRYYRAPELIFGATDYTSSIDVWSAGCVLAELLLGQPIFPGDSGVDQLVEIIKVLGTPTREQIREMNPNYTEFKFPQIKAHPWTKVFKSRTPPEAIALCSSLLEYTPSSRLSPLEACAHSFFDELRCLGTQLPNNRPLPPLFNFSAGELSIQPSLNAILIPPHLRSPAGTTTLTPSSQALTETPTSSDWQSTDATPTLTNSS
UniProt P14616: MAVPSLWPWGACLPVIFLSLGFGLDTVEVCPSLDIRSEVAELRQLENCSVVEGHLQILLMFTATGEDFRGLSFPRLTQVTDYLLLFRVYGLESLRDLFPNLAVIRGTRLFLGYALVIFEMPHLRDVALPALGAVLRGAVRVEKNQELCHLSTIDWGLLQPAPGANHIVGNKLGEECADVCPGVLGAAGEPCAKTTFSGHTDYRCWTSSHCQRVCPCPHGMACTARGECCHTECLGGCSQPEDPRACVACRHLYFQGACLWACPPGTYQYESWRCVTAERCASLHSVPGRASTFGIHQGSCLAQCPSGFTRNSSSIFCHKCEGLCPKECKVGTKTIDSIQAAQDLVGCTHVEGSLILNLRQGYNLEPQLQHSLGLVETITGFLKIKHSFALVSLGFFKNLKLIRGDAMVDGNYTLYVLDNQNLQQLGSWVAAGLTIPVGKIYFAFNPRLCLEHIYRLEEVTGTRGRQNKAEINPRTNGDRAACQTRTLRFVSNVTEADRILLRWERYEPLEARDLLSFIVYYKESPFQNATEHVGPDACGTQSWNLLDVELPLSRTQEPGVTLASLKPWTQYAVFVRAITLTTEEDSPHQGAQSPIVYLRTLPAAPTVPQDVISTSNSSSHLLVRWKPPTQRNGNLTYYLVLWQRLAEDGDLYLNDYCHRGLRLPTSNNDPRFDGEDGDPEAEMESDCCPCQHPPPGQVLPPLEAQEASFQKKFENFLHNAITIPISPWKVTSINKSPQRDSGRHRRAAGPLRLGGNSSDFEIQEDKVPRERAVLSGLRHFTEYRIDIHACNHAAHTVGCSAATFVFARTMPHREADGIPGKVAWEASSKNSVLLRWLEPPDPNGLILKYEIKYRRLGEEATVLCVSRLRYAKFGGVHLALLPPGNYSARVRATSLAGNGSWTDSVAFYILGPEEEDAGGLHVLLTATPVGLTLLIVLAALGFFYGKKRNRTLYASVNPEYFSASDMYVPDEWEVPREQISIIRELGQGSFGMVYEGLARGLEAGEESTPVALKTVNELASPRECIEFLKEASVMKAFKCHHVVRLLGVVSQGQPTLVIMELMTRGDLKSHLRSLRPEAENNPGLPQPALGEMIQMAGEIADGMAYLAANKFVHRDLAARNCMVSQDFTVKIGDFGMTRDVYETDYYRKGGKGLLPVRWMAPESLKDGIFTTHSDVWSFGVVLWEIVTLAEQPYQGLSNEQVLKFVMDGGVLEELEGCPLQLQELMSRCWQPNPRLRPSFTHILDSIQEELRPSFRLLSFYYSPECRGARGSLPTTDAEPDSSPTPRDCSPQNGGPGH

Experiments:
Test in all cases: kinase-Nluc reporter destabilization hit call (1 = scored as downregulated) (binary); higher = compound decreases kinase abundance
Conditions in all cases: K562; 2-18 h
ERN1 = ERN1 (UniProt O75460)
FGFR1 = FGFR1 (UniProt P11362)
FGFR2 = FGFR2 (UniProt P21802)
FGFR3 = FGFR3 (UniProt P22607)
FGR = FGR (UniProt P09769)
FLT3 = FLT3 (UniProt P36888)
FYN = FYN (UniProt P06241)
GSK3A = GSK3A (UniProt P49840)
HER2 = HER2 (UniProt P04626)
INSRR = INSRR (UniProt P14616)

Measured: kinase-Nluc reporter destabilization hit call

CCC(C)(C)C(=O)N(O)Cc1ccccc1 (10 µM)
inactive: ERN1 = 0 | FGFR1 = 0 | FGFR2 = 0 | FGFR3 = 0 | FGR 0 | FLT3 = 0 | FYN 0 | GSK3A 0 | HER2 = 0 | INSRR 0

CCCCOc1ccc(CC/C=C2\SC(=O)N(CCN)C2=O)cc1 [K145 (hydrochloride)] (2.5 µM)
inactive: ERN1 = 0 | FGFR1 = 0 | FGFR2 = 0 | FGFR3 = 0 | FGR 0 | FLT3 = 0 | FYN 0 | GSK3A 0 | HER2 = 0 | INSRR 0

Nc1[nH]c(=O)nc2c1ncn2[C@@H]1O[C@H](CO)[C@@H](O)[C@H]1O [Crotonoside] (10 µM)
inactive: ERN1 = 0 | FGFR1 = 0 | FGFR2 = 0 | FGFR3 = 0 | FGR 0 | FLT3 = 0 | FYN 0 | GSK3A 0 | HER2 = 0 | INSRR 0

Cn1ncc(Cl)c1-c1cc(C(=O)N[C@H](CN)Cc2ccc(F)c(F)c2)sc1Cl (10 µM)
inactive: ERN1 = 0 | FGFR1 = 0 | FGFR2 = 0 | FGFR3 = 0 | FGR 0 | FLT3 = 0 | FYN 0 | GSK3A 0 | HER2 = 0 | INSRR 0

O=[N+]([O-])c1ccc(Sc2cccc[n+]2[O-])c2nonc12 (2.5 µM)
inactive: ERN1 = 0 | FGFR1 = 0 | FGFR2 = 0 | FGFR3 = 0 | FGR 0 | FLT3 = 0 | FYN 0 | GSK3A 0 | HER2 = 0 | INSRR 0

NC(=O)c1ccc(-c2cnn3ccc(NCc4cccnc4)nc23)cc1 (2.5 µM)
inactive: ERN1 = 0 | FGFR1 = 0 | FGFR2 = 0 | FGFR3 = 0 | FGR 0 | FLT3 = 0 | FYN 0 | GSK3A 0 | HER2 = 0 | INSRR 0

C[C@@H]1CCc2ncc(F)cc2[C@H]2CCCN2c2ccn3ncc(c3n2)C(=O)N1 [Selitrectinib] (10 µM)
inactive: ERN1 = 0 | FGFR1 = 0 | FGFR2 = 0 | FGFR3 = 0 | FGR 0 | FLT3 = 0 | FYN 0 | GSK3A 0 | HER2 = 0 | INSRR 0

Cc1ccc(-c2ncn(-c3ccc(Nc4nccc(-c5cccc(N6CCOCC6)c5)n4)cc3)n2)cn1 (10 µM)
inactive: ERN1 = 0 | FGFR1 = 0 | FGFR2 = 0 | FGFR3 = 0 | FGR 0 | FLT3 = 0 | FYN 0 | GSK3A 0 | HER2 = 0 | INSRR 0

C[C@H]1[C@H](OC(=O)CCC(=O)O)O[C@@H]2O[C@@]3(C)CC[C@H]4[C@H](C)CC[C@@H]1[C@@]24OO3 [Artesunate] (2.5 µM)
inactive: ERN1 = 0 | FGFR1 = 0 | FGFR2 = 0 | FGFR3 = 0 | FGR 0 | FLT3 = 0 | FYN 0 | GSK3A 0 | HER2 = 0 | INSRR 0

O=c1cc(-c2ccc(O)c(O)c2O)oc2ccccc12 (10 µM)
inactive: ERN1 = 0 | FGFR1 = 0 | FGFR2 = 0 | FGFR3 = 0 | FGR 0 | FLT3 = 0 | FYN 0 | GSK3A 0 | HER2 = 0 | INSRR 0

COc1ccc(CN2C3CC2CN(c2ccc(-c4cc(OCC(C)(C)O)cn5ncc(C#N)c45)cn2)C3)cn1 [Selpercatinib] (10 µM)
inactive: ERN1 = 0 | FGFR1 = 0 | FGFR2 = 0 | FGFR3 = 0 | FGR 0 | FLT3 = 0 | FYN 0 | GSK3A 0 | HER2 = 0 | INSRR 0

CCc1cccc(CC)c1NC(=O)c1nn(C)c2c1CCc1cnc(Nc3ccc(C(=O)NC4CCN(C)CC4)cc3OC(F)(F)F)nc1-2 (2 µM)
inactive: ERN1 = 0 | FGFR1 = 0 | FGFR2 = 0 | FGFR3 = 0 | FGR 0 | FLT3 = 0 | FYN 0 | GSK3A 0 | HER2 = 0 | INSRR 0

CCN1/C(=C/C(C)=O)Sc2ccc(OC)cc21 (10 µM)
inactive: ERN1 = 0 | FGFR1 = 0 | FGFR2 = 0 | FGFR3 = 0 | FGR 0 | FLT3 = 0 | FYN 0 | GSK3A 0 | HER2 = 0 | INSRR 0

CCCC(=O)Nc1nc2c(ncn2[C@@H]2O[C@@H]3COP(=O)(O)O[C@H]3[C@H]2OC(=O)CCC)c(=O)[nH]1 [Dibutyryl-cGMP (sodium)] (10 µM)
inactive: ERN1 = 0 | FGFR1 = 0 | FGFR2 = 0 | FGFR3 = 0 | FGR 0 | FLT3 = 0 | FYN 0 | GSK3A 0 | HER2 = 0 | INSRR 0

CC1(N)CCN(c2cnc3c(-c4cccc(Cl)c4Cl)[nH]nc3n2)CC1 (2.5 µM)
inactive: ERN1 = 0 | FGFR1 = 0 | FGFR2 = 0 | FGFR3 = 0 | FGR 0 | FLT3 = 0 | FYN 0 | GSK3A 0 | HER2 = 0 | INSRR 0

Nc1nc2cc(-c3ccc4ncc(C(=O)N5CCOCC5)n4c3)ccc2o1 [Serabelisib] (10 µM)
inactive: ERN1 = 0 | FGFR1 = 0 | FGFR2 = 0 | FGFR3 = 0 | FGR 0 | FLT3 = 0 | FYN 0 | GSK3A 0 | HER2 = 0 | INSRR 0

[O-][n+]1cccc(-c2nc3c(Cl)cccc3cc2[C@@H](Nc2ncnc3cccnc23)C(F)(F)F)c1 [Seletalisib] (10 µM)
inactive: ERN1 = 0 | FGFR1 = 0 | FGFR2 = 0 | FGFR3 = 0 | FGR 0 | FLT3 = 0 | FYN 0 | GSK3A 0 | HER2 = 0 | INSRR 0

C[C@@H]1COCCN1c1cc(=O)n2c(n1)N(Cc1cncc(Cl)c1)[C@H](C(F)(F)F)CC2 (10 µM)
inactive: ERN1 = 0 | FGFR1 = 0 | FGFR2 = 0 | FGFR3 = 0 | FGR 0 | FLT3 = 0 | FYN 0 | GSK3A 0 | HER2 = 0 | INSRR 0

CNC(=O)c1ccc(-c2cnc3cnc(-c4ccccc4)cn23)cc1 (10 µM)
inactive: ERN1 = 0 | FGFR1 = 0 | FGFR2 = 0 | FGFR3 = 0 | FGR 0 | FLT3 = 0 | FYN 0 | GSK3A 0 | HER2 = 0 | INSRR 0

2 records drawn at random from the list so far, as already listed:
Cn1ncc(Cl)c1-c1cc(C(=O)N[C@H](CN)Cc2ccc(F)c(F)c2)sc1Cl (10 µM)
inactive: ERN1 = 0 | FGFR1 = 0 | FGFR2 = 0 | FGFR3 = 0 | FGR 0 | FLT3 = 0 | FYN 0 | GSK3A 0 | HER2 = 0 | INSRR 0

CCCCOc1ccc(CC/C=C2\SC(=O)N(CCN)C2=O)cc1 [K145 (hydrochloride)] (2.5 µM)
inactive: ERN1 = 0 | FGFR1 = 0 | FGFR2 = 0 | FGFR3 = 0 | FGR 0 | FLT3 = 0 | FYN 0 | GSK3A 0 | HER2 = 0 | INSRR 0

The listing continues.

O=c1ccc2ccc(O)c(O)c2o1 [Daphnetin] (10 µM)
inactive: ERN1 = 0 | FGFR1 = 0 | FGFR2 = 0 | FGFR3 = 0 | FGR 0 | FLT3 = 0 | FYN 0 | GSK3A 0 | HER2 = 0 | INSRR 0

CN1CCN(CCCNc2ncc(Cl)c(-c3cc4c(C(=O)NC5CC5)cccc4s3)n2)CC1 (10 µM)
inactive: ERN1 = 0 | FGFR1 = 0 | FGFR2 = 0 | FGFR3 = 0 | FGR 0 | FLT3 = 0 | FYN 0 | GSK3A 0 | HER2 = 0 | INSRR 0

O=C1NC(=O)C(=Cc2ccc3c(c2)OCO3)S1 (10 µM)
inactive: ERN1 = 0 | FGFR1 = 0 | FGFR2 = 0 | FGFR3 = 0 | FGR 0 | FLT3 = 0 | FYN 0 | GSK3A 0 | HER2 = 0 | INSRR 0

CN(C)C(=O)c1ccc(S(=O)(=O)c2ccc(NC(=O)[C@@](C)(O)C(F)(F)F)c(Cl)c2)cc1 (10 µM)
inactive: ERN1 = 0 | FGFR1 = 0 | FGFR2 = 0 | FGFR3 = 0 | FGR 0 | FLT3 = 0 | FYN 0 | GSK3A 0 | HER2 = 0 | INSRR 0

CC(C)c1cc(/C=C(\C#N)C(N)=O)cc(C(C)C)c1O (10 µM)
inactive: ERN1 = 0 | FGFR1 = 0 | FGFR2 = 0 | FGFR3 = 0 | FGR 0 | FLT3 = 0 | FYN 0 | GSK3A 0 | HER2 = 0 | INSRR 0

O=C(CCCCCn1cc(Nc2ncc(Cl)c(Nc3ccc(Cl)cc3)n2)cn1)NO (2.5 µM)
inactive: ERN1 = 0 | FGFR1 = 0 | FGFR2 = 0 | FGFR3 = 0 | FGR 0 | FLT3 = 0 | FYN 0 | GSK3A 0 | HER2 = 0 | INSRR 0

C=C[C@H]1[C@H](O[C@@H]2O[C@H](CO)[C@@H](O)[C@H](O)[C@H]2OC(=O)c2c(O)cc(O)cc2-c2cccc(O)c2)OC=C2C(=O)OCC[C@H]21 [Amarogentin] (10 µM)
inactive: ERN1 = 0 | FGFR1 = 0 | FGFR2 = 0 | FGFR3 = 0 | FGR 0 | FLT3 = 0 | FYN 0 | GSK3A 0 | HER2 = 0 | INSRR 0

Nc1cc(C(F)F)c(-c2nc(N3C4CCC3COC4)nc(N3C4CCC3COC4)n2)cn1 (2.5 µM)
inactive: ERN1 = 0 | FGFR1 = 0 | FGFR2 = 0 | FGFR3 = 0 | FGR 0 | FLT3 = 0 | FYN 0 | GSK3A 0 | HER2 = 0 | INSRR 0
